Data reported in PMC12143592, “Bacterial RecD2 is a processive single-stranded DNA translocase with strand-switching capacity at DNA forks” (Nucleic Acids Research, 2025).
Construct, isoform or probe ends are uncertain for at least one entry. A weaker result is weaker than the reference pair of the same experiment. Where a protein sequence is shown, tags need not be part of it.

Target: T1, RecD2 (His-tagged) (Bacillus subtilis) (UniProt O34481)
T1 sequence (looked up, limits assumed): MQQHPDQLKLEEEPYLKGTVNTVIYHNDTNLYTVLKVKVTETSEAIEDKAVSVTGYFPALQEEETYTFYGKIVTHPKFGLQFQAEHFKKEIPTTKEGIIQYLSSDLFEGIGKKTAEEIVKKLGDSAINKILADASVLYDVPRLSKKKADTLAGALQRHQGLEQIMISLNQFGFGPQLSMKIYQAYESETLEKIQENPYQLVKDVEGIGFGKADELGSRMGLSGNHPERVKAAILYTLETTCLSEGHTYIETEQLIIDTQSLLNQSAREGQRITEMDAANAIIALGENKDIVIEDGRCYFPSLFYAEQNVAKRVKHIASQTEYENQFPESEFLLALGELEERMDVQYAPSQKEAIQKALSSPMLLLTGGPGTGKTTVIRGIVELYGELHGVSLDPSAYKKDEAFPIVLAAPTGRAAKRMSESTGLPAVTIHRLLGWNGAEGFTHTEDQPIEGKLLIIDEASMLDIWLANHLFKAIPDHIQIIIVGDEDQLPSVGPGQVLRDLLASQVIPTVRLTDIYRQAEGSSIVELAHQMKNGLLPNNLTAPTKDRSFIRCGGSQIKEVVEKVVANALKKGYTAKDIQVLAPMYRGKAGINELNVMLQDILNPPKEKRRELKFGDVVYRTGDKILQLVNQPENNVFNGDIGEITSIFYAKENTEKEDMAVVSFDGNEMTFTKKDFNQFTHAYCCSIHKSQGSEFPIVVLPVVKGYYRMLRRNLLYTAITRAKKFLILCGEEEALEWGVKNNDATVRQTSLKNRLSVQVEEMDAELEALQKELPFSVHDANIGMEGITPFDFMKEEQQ
Assay: EMSA
Settings: 2 mM MgCl2 (or 10 mM), 15 min 37 C, then 0.05% glutaraldehyde 15 min 37 C, 8% PAGE, recombinant protein, protein details: 6xHis (not removed), label: 32P

[1] = 2 mM MgCl2, 1 mM ATPgS, weaker than fork 30-30, similar to tailed duplexes, EMSA: 0.25 nM 32P-DNA
[2] = 2 mM MgCl2, 1 mM ATPgS, value given for dT40-80, EMSA: 0.25 nM 32P-DNA, single-stranded DNA

“ACGGCCTAGAACGGCCTAGAACGGCCTAGATCGTGAACCTGCAGGTAAGGGGCTGCTCATCGTAGGTTAGCGTAAATTAG [80-nt random ssDNA (17-M-80)]”: binds more weakly (no ATPgS, EMSA: 0.25 nM 32P-DNA, 1 mM ATPgS, single-stranded DNA).

“ACGGCCTAGATCGTGAACCTGCAGGTAAGGGGCTGCTCATCGTAGGTTAGCGTAAATTAG / GTGCCTTGCTAGGACATCAGTCGTAGGATACCTTACCTGCAGGTTCACGATCTAGGCCGT / CTAATTTACGCTAACCTACGATGAGCAGCC [5'-tailed replicated fork]”: binds more weakly [1].

“ACGGCCTAGATCGTGAACCTGCAGGTAAGGGGCTGCTCATCGTAGGTTAGCGTAAATTAG / GTGCCTTGCTAGGACATCAGTCGTAGGATACCTTACCTGCAGGTTCACGATCTAGGCCGT / TATCCTACGACTGATGTCCTAGCAAGGCAC [3'-tailed replicated fork]”: binds more weakly [1].

Work on “ACGGCCTAGATCGTGAACCTGCAGGTAAGGGGCTGCTCATCGTAGGTTAGCGTAAATTAG / GTGCCTTGCTAGGACATCAGTCGTAGGATACCTTACCTGCAGGTTCACGATCTAGGCCGT [fork 30-30]” yielded a half-maximal binding (2 mM MgCl2, 1 mM ATPgS, EMSA: 0.25 nM 32P-DNA) of 2 nM.

In the case of TTTTTTTTTTTTTTTTTTTT [poly(dT)20], the half-maximal binding (2 mM MgCl2, 1 mM ATPgS, affinity stated as low, EMSA: 0.25 nM 32P-DNA, single-stranded DNA) is reported as > 50 nM.

Sequence “TTTTTTTTTTTTTTTTTTTTTTTTTTTTTTTTTTTTTTTT [poly(dT)40]” has a half-maximal binding [2] of 3 nM.

“TTTTTTTTTTTTTTTTTTTTTTTTTTTTTTTTTTTTTTTTTTTTTTTTTTTTTTTTTTTT [poly(dT)60]” gave a half-maximal binding (2 mM MgCl2, 1 mM ATPgS, value given for dT40-80, three complexes, EMSA: 0.25 nM 32P-DNA, single-stranded DNA) of 3 nM.

“TTTTTTTTTTTTTTTTTTTTTTTTTTTTTTTTTTTTTTTTTTTTTTTTTTTTTTTTTTTTTTTTTTTTTTTTTTTTTTTT [poly(dT)80]” was tested, and the half-maximal binding [2] was 3 nM.
